Experimental data from patent publication US20250304681A1.
These are yes or no findings as the source states them, for the method shown. Some binding calls cover weakened binding; strength is not graded here.

Biological target: RAGE(1-404)-3xflag-eBFP (plasmid p605) on HepG2 cells
Assay: flow cytometry, FITC-labelled EVs on fixed p605-HepG2 cells, 10,000-30,000 particles/cell

A90-Fc EV (from UniProt P0DOX7 1-214)
binding: binds
